No constants are given. Whether binding was seen depends on the method and setting. In cells and extracts the contact can be indirect. A result given as binding can be weak or reduced; the word gives no strength. Where a sequence is shown, tags or fusion partners need not be part of it.
Biological target: T1, Forkhead box M1 (FOXM1), FLAG-tagged (UniProt Q08050)
T1 sequence: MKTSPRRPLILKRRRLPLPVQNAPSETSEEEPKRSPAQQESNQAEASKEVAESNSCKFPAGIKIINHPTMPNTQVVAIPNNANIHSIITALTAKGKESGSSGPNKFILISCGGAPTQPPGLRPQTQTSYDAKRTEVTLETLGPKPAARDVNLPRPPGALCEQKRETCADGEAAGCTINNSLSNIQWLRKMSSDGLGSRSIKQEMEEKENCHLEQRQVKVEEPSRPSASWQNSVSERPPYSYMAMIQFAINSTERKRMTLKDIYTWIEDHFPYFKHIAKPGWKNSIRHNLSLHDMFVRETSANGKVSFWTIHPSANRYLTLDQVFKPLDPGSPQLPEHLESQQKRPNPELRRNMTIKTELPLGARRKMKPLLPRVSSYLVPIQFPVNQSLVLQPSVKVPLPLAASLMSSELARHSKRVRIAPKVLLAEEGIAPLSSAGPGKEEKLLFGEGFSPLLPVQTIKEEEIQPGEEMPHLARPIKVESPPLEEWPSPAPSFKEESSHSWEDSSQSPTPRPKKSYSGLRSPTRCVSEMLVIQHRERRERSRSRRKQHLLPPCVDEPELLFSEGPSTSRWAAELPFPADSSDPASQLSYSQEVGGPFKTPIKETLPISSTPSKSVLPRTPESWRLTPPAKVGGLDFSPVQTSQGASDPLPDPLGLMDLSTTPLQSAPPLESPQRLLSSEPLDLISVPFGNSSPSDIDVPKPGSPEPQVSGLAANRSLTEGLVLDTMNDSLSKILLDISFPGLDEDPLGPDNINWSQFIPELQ
Experiment: co-IP; HEK293T cells transfected with the tagged constructs, 10 uM MG132 for 8 hours before harvest; lysis in EBC buffer (50 mM Tris pH 7.5, 120 mM NaCl, 0.5% NP-40); anti-HA or anti-FLAG agarose beads, 3 hours at 4 °C; washed with NETN buffer; immunoblot; some panels with DMSO or RCM-1 (10 uM) and LMB (25 nM) for 24 hours

By UniProt entry, the sequences of proteins in these tests, tags left out. Where a name states a change or a piece, a line headed by the entry shows the natural chain unless it says otherwise.
UniProt Q9ULX5: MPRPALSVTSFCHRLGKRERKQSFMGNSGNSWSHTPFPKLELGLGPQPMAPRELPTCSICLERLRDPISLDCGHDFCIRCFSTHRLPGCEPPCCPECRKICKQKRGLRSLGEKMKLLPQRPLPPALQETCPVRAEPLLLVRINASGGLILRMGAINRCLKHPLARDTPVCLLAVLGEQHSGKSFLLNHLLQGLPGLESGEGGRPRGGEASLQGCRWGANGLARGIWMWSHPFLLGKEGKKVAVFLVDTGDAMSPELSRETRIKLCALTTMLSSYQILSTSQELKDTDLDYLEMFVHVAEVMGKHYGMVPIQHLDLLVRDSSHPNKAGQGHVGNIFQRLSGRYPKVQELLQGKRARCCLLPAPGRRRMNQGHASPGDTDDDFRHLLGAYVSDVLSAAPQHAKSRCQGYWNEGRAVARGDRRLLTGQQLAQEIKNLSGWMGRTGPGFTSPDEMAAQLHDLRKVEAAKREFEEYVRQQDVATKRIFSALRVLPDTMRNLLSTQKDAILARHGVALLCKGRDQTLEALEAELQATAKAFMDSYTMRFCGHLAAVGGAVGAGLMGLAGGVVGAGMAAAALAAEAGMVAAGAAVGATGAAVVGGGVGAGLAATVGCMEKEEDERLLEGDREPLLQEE

- binding: binds
Substance: catalytic dead RNF112 (RNF112-Mut) (from UniProt Q9ULX5) (enzyme)

Source: article PMC10259508
